The list shows a part of the results. Further columns of the screen follow, without active or inactive calls. The list favours compounds with an active or inconclusive main result. Potencies come from curve fits of mixed quality, noted in brackets.
Assay: qHTS Assay for Lipid Storage Modulators in Drosophila S3 Cells;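 as to cell number change: cells counted by Cell Tracker Red CMTPX staining in the red channel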
Conditions: BODIPY lipid droplet fluorescence, 18-24 h; for cell number change: measured here: cell count max response, cells fed with added oleic acid
How it was run: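 Drosophila S3 cells got compounds at several concentrations plus oleic acid (400 uM solution). Laser-scanning cytometry with 488 nm excitation read lipid droplets at 500-530 nm and cells at 575-640 nm. Percent activity was relative to 20 uM Triacsin C.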

[1] = measured here: lipid fluorescence (Fed channel) AC50, cells fed with added oleic acid
[2] = measured here: cell number channel AC50, cells fed with added oleic acid

| Compound | AC50 [1] | cell number change [%] | AC50 [2] |
| --- | --- | --- | --- |
| COc1ccc(Cl)cc1NC(=O)CCc1nnc2ccc(N3CCC4(CC3)OCCO4)nn12 | 18.4 µM [falling, partial curve] |  |  |
| Cc1cccc2cc(CN(Cc3ccco3)S(=O)(=O)c3ccc4c(c3)OCCO4)c(=O)[nH]c12 |  | -17.3 |  |
| CC1CC(C)CN(CCCNC(=O)CC2Oc3ccccc3NC2=O)C1 (centres undefined) | 0.231 µM [falling, full curve] | 11.4 |  |
| CS(=O)(=O)c1cccc(C(=O)Nc2nnc(C3=COCCO3)o2)c1 | 23.1 µM [rising, partial curve, poor fit] | -2.53 |  |
| CON(C)S(=O)(=O)c1cccc(C(=O)Nc2ccc(S(=O)(=O)NC3=NCCCCC3)cc2)c1 |  | 20 |  |
| Cc1noc(C)c1COC(=O)[C@H](C)NS(=O)(=O)c1ccc(Cl)c(Cl)c1 | 0.58 µM [falling, single point] |  |  |
| CCOC(=O)C1=C(C)N=c2s/c(=C3/C(=O)Nc4ccccc43)c(=O)n2C1c1ccc(C)cc1 (centres undefined) |  | 11.6 | 2.91 µM [falling, single point] |
| COc1ccc(N2CCN(C(=O)c3ccc(CS(=O)Cc4ccc(Cl)cc4)o3)CC2)cc1 (centres undefined) | 4.61 µM [rising, full curve] | 46.6 | 13 µM [rising, partial curve] |
| Nc1ccc(C(=O)N/N=C/c2cn(Cc3ccccc3F)c3ccccc23)cc1 | 29.1 µM [falling, single point] | -45 | 29.1 µM [falling, single point] |
| COc1ccc(-c2cn3c(C)c(C(=O)Nc4cc(NC(C)=O)ccc4OC)sc3n2)cc1 | 7.31 µM [rising, partial curve, poor fit] | 14.4 |  |
| O=C(c1ccccn1)N1CCN(S(=O)(=O)c2ccccc2)CC1 | 0.0058 µM [falling, full curve, poor fit] | -66.1 | 11.6 µM [falling, partial curve, poor fit] |
| COc1ccccc1-c1nc(S(=O)(=O)c2ccc(Cl)cc2)c(N(C)C)o1 | 23.1 µM [falling, single point] | 14.6 |  |
| CC1(c2ccc(OC(F)F)cc2)NC(=O)N(CC(=O)NC2CCCC2)C1=O (centres undefined) |  | -39 | 25.9 µM [falling, single point] |
| CSc1nsc(SCC(=O)Nc2ccccc2C(N)=O)n1 |  | -13.9 |  |
| CC(C(=O)NC1C=CS(=O)(=O)C1)N1C(=O)/C(=C/c2cccc(Cl)c2)SC1=S (centres undefined) | 29.1 µM [falling, single point] | -46.5 | 29.1 µM [falling, single point] |
| CC(C)c1ccc(NC(=O)c2n[nH]c(=O)c3ccccc23)cc1 | 1.16 µM [falling, full curve, poor fit] | -25.5 | 1.03 µM [falling, full curve, poor fit] |
| Cn1c(=O)c2c(nc(NCc3ccco3)n2Cc2ccc(Cl)cc2Cl)n(C)c1=O | 0.0651 µM [rising, partial curve, poor fit] | -3.07 |  |
| Cc1ccc(CN(C)C(=O)CCc2nc3sc4c(c3c(=O)[nH]2)CCCC4)o1 |  | 0.99 | 0.103 µM [rising, full curve, poor fit] |
| CC1=CC(C)(C)N2C(=O)C(=O)c3cc(OC(=O)c4ccco4)cc1c32 |  | -51.1 | 23.1 µM [falling, partial curve, poor fit] |
| Cc1ccc(CNCCNCCO)s1 |  | 39 | 29.1 µM [rising, partial curve] |

| Compound | AC50 [1] | cell number change [%] | AC50 [2] |
| --- | --- | --- | --- |
| O=C(CSc1ccccn1)Nc1ccc2[nH]c(=O)[nH]c2c1 | 29.1 µM [falling, single point] | -12.9 |  |
| Cc1csc(N(C(=O)CCNC(=O)c2ccc([N+](=O)[O-])cc2)c2ccccc2)n1 | 9.2 µM [falling, partial curve] | 16 |  |
| CN=C1SC(C(=O)O)CC(=O)N1C (centres undefined) |  | -1.96 |  |
| O=C(Nc1ccccc1N1CCCC1)c1ccc(F)c(S(=O)(=O)N2CCOCC2)c1 | 3.26 µM [falling, full curve] | 2.09 |  |
| COc1ccc(N(CC(=O)NCc2cccs2)S(=O)(=O)c2cccc(C)c2)cc1 |  | 122 | 13 µM [rising, partial curve] |
| O=S(=O)(c1ccc2c(c1)CCC2)N1CCNCC1 | 0.231 µM [rising, full curve] | -4.18 |  |
| CC1CC(N(C(=O)C2CC2)c2ccccc2)c2ccccc2N1C(=O)C1CC1 (centres undefined) | 0.184 µM [falling, full curve, poor fit] | 8.67 |  |
| CCn1ncc(/C=N\NC(=O)c2csc3ccccc23)c1C | 0.116 µM [falling, full curve, poor fit] | -6.19 |  |
| CN(CC(=O)N1CCc2ccccc2C1)c1ccccc1 | 29.1 µM [rising, single point] | 33.4 |  |
| CC1=C(C(=O)Nc2ccccc2C(F)(F)F)C(c2sccc2C)NC(=S)N1 (centres undefined) |  |  | 2.06 µM [falling, partial curve, poor fit] |
| O=S(=O)(NCc1ccc(Cl)cc1)c1cnc[nH]1 | 0.731 µM [rising, single point] |  |  |
| CC(C)N(C(=O)CSc1nnc(CSc2ncccn2)n1C)C(C)C | 0.00517 µM [falling, full curve, poor fit] | -8.11 |  |
| CCOC(=O)C1CCN(C(=O)c2cc3cc4ccc(OC)cc4nc3o2)CC1 | 1.84 µM [rising, partial curve] | 7.96 |  |
| Cc1cc(OC(=O)c2ccccc2C(F)(F)F)c([N+](=O)[O-])c(=O)[nH]1 | 29.1 µM [rising, single point] | 24 |  |
| O=C(NCc1ccccn1)c1c(O)c2cccc3c2n(c1=O)CC3 | 1.64 µM [rising, full curve, poor fit] | 23.9 | 0.0731 µM [rising, full curve, poor fit] |
| COc1ccc(S(=O)(=O)N2CCN(C(=O)c3ccc(NC(C)=O)cc3)CC2)cc1 | 20.6 µM [rising, single point] | 23.7 |  |
| COc1ccc(-n2cnc3cc(NS(=O)(=O)c4ccc(C)cc4)ccc32)cc1 | 2.91 µM [rising, partial curve] |  | 3.26 µM [rising, partial curve] |
| Nc1ccc2c(c1)-c1ccccc1S(=O)(=O)N2 |  | -3.11 |  |
| O=C(NCC1CCCN(C2Cc3ccccc3C2)C1)c1cccs1 (centres undefined) |  | -0.885 |  |
| O=C(COC(=O)c1cc(=O)[nH]c2ccccc12)c1ccccc1 | 2.31 µM [falling, partial curve] | -6.33 | 0.00461 µM [falling, full curve, poor fit] |

Shown as tab-separated lines: 4 of the compounds above.
Compound	AC50 [1]	cell number change [%]	AC50 [2]
O=C(CSc1ccccn1)Nc1ccc2[nH]c(=O)[nH]c2c1	29.1 µM [falling, single point]	-12.9	
O=C(Nc1ccccc1N1CCCC1)c1ccc(F)c(S(=O)(=O)N2CCOCC2)c1	3.26 µM [falling, full curve]	2.09	
CC1CC(N(C(=O)C2CC2)c2ccccc2)c2ccccc2N1C(=O)C1CC1 (centres undefined)	0.184 µM [falling, full curve, poor fit]	8.67	
CCn1ncc(/C=N\NC(=O)c2csc3ccccc23)c1C	0.116 µM [falling, full curve, poor fit]	-6.19	

Further compounds

| Compound | AC50 [1] | cell number change [%] | AC50 [2] |
| --- | --- | --- | --- |
| COc1ccc(N2CCN(C(=O)CSc3nc(C)cs3)CC2)cc1 |  |  | 3.66 µM [rising, partial curve] |
| Cc1ccc2nc(/C(C#N)=C\c3ccc(N4CCCCC4)c([N+](=O)[O-])c3)[nH]c2c1 | 6.51 µM [rising, single point] | -31.9 | 18.4 µM [falling, single point] |
| COc1ccc(CC(=O)Nc2cccc(S(=O)(=O)N3CCCCCC3)c2)cc1OC | 23.1 µM [falling, partial curve] |  |  |
| Fc1ccc(Nc2c3c(nc4ccccc24)CCC3)cc1 |  |  | 6.51 µM [rising, single point] |
| Nc1c(C(=O)Nc2ccc3c(c2)OCCO3)nnn1Cc1cccc(Br)c1 |  | -25 | 0.0058 µM [falling, full curve, poor fit] |
| CC(C)(C)c1cc(CCC(=O)NCc2cccnc2)cc(C(C)(C)C)c1O | 29.1 µM [rising, single point] | 11.4 |  |
| COc1ccc(CNc2nc3ccccc3n2C(C)C)c(O)c1 | 6.51 µM [rising, single point] | -15.5 |  |
| O=C(CC12CC3CC(CC(C3)C1)C2)NC(=S)NCc1ccco1 |  | -38.8 |  |
| O=C(CNC(=O)c1cccc(Br)c1)N/N=C/c1cn[nH]c1-c1ccccc1 | 29.1 µM [rising, single point] | 9.1 |  |
| CCOc1c(Br)cc(CNCc2cccs2)cc1OC | 16.4 µM [falling, single point] | -29.7 |  |
| CCc1[nH]nc2c1C(c1ccncc1)C(C#N)=C(N)O2 (centres undefined) |  |  | 2.06 µM [rising, partial curve, poor fit] |
| COc1ccc(OC)c(S(=O)(=O)n2cnc3cc(C)c(C)cc32)c1 | 0.103 µM [rising, full curve, poor fit] | 4.3 |  |
| COc1ccc(OC)c(-c2csc3nnc(SCC(=O)Nc4ccc(NC(C)=O)cc4)n23)c1 |  | -3.74 | 0.184 µM [rising, full curve, poor fit] |
| Cc1cccnc1NC(=O)Nc1cccc(C(F)(F)F)c1 | 0.116 µM [rising, full curve, poor fit] |  | 0.116 µM [rising, full curve, poor fit] |
| COc1ccc(-n2c(SCC(=O)NNC(=O)c3ccc(C)cc3)nnc2-c2ccncc2)cc1 | 4.11 µM [rising, partial curve, poor fit] | 19.8 |  |
| CCc1nc2oc3cc(OC)ccc3c(=O)c2c(=O)n1Cc1ccco1 | 0.13 µM [falling, full curve, poor fit] | -5.32 |  |
| C=C(C)C(=O)OCC(O)COc1ccc(C(C)(C)c2ccc(OCC(O)COC(=O)C(=C)C)cc2)cc1 (centres undefined) | 29.1 µM [rising, single point] | 15.4 |  |
| Cn1ncc2c(Nc3cccc4ccccc34)ncnc21 | 0.231 µM [rising, full curve] |  | 1.64 µM [rising, partial curve, poor fit] |
